In patent publication US20150253305A1, “METHODS OF IDENTIFYING COMPOUNDS FOR TREATING DEPRESSION AND OTHER RELATED DISEASES” (NORTHWESTERN UNIVERSITY, priority 2012, published 2015):
Entries after “also recorded” stand apart in the source; their conditions may differ. At least one compound was matched to its structure with a doubt left. Peptide text beside a SMILES is read from it.

Amino acid sequences for entries named in this document (tags omitted). Residues count along the entry.
UniProt Q00960, 27-1482: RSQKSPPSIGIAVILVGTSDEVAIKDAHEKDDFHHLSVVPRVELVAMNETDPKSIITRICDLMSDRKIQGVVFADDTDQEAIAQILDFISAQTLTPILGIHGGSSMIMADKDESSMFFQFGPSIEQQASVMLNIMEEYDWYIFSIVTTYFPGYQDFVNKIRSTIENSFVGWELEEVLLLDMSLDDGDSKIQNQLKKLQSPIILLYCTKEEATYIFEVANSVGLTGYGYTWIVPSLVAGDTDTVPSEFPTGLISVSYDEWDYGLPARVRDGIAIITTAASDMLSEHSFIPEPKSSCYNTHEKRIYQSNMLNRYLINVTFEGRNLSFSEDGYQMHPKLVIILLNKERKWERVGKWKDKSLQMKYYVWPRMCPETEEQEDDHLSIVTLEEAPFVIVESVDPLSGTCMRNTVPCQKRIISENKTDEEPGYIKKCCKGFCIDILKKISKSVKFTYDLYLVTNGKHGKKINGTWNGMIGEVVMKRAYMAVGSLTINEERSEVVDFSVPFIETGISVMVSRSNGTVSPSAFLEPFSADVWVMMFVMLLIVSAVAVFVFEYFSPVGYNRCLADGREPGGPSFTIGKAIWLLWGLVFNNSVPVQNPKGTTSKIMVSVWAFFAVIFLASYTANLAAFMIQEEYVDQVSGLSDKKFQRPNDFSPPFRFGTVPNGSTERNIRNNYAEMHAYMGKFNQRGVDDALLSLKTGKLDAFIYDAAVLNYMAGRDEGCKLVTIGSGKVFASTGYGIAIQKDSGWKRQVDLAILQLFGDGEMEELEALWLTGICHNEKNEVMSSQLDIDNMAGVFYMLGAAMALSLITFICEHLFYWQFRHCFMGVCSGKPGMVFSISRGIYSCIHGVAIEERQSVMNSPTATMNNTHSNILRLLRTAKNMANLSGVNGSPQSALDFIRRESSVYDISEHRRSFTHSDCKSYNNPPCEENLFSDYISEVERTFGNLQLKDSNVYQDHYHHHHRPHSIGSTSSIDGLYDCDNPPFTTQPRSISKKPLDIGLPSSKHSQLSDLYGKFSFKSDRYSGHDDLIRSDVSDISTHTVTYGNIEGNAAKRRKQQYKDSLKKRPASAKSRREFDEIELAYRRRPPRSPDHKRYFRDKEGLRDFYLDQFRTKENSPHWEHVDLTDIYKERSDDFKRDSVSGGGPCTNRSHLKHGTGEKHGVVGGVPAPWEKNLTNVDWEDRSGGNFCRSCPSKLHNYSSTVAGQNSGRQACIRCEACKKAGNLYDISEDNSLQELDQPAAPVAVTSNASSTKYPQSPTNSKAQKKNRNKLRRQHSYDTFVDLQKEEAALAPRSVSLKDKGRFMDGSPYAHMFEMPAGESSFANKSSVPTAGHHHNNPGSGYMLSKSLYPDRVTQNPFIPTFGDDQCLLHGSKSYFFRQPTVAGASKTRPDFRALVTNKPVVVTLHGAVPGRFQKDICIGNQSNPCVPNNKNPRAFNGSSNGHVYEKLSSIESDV

Legend:
pS-1480 GluN2B = assay: Western blot of pS-1480 GluN2B in medial prefrontal cortex; type: in vivo, rat; conditions: 3 mg/kg IV
NMDA receptor = assay: Ex vivo [3H] MK-801 binding in MPFC membranes; parameters: species or system rat; conditions: 3 mg/kg IV, one hour after dosing
NR2B-containing NMDARs = NR2B-containing NMDARs (Rattus norvegicus, UniProt P35439+Q00960); assay: Ex vivo NMDAR current in CA1 pyramidal neurons (ifenprodil-isolated NR2B contribution); conditions: 3 mg/kg IV, 24 hrs before ex vivo measurement (FIG. 7)
[1] = test system: Wnt signaling pathway gene expression; assay: Wnt pathway-specific qRT-PCR array in mPFC; type: in vivo, rat
Experimental: Adult (2-3 month-old) male Sprague-Dawley rats (Harlan Laboratories, Indianapolis, Ind.) were housed 3 to a cage and injected (IV) with one of the following—GLYX-13 (3 mg/kg), ketamine (10 mg/kg), or saline vehicle (1 ml/kg). At 1 and 24 hours after injection (N=5 per time point for each treatment group), rats were sacrificed, their brains were quickly dissected, frozen, and then stored at −80° C. The medial prefrontal cortex (mPFC) was dissected from frozen tissue on ice. An equal volume of the homogenized tissue was used to extract and purify RNA for microarray analysis and to make cDNA for qRT-PCR analysis. All procedures were approved by the Northwestern University IACUC committee and performed in accordance with the NIH Guide for the Care and Use of Laboratory Animals.
Reverse transcription of 1.0 μg of DNAsed, total RNA from 4 rats was primed with oligo(dT) and random hexamers. We utilized SuperScriptIII according to manufacturer's specifications (Invitrogen, Carlsbad, Calif.). A 1:10 dilution of cDNA was used as a template for quantitative real-time PCR, and the analysis was performed with Brilliant SYBR Green qRT-PCR Master Mix (Stratagene) on a Mx3000P Real-Time PCR System. ROX reference dye was included in all reactions. Experiments were performed in triplicate for each data point and transcript abundance was normalized to reference genes included in the rat Wnt PCR array (Qiagen, 330231).
The sample size for each group in FIG. 2 was 4 rats.

casein kinase II (CK2) = assay: CK2 kinase activity (phosphorylation of CK2 substrate peptide) in medial prefrontal cortex; type: in vivo, rat; conditions: 3 mg/kg IV, 15 min post-dosing
GluN2B = assay: Western blot of total GluN2B protein in medial prefrontal cortex; type: in vivo, rat; conditions: 3 mg/kg IV
Sprague-Dawley rats = assay: Porsolt test
pS-1303 GluN2B = assay: Western blot of pS-1303 GluN2B in medial prefrontal cortex; type: in vivo, rat; conditions: 3 mg/kg IV

Structure (SMILES): C[C@@H](O)[C@H](N)C(=O)N1CCC[C@H]1C(=O)N1CCC[C@H]1C(=O)N[C@H](C(N)=O)[C@@H](C)O [GLYX-13, L-threonyl-L-prolyl-L-prolyl-L-threonine amide] (H-TPPT-NH2)
- serine-1480 phosphorylation of GluN2B levels (pS-1480 GluN2B; 15 min post-dosing): 2.01 fold
- serine-1480 phosphorylation of GluN2B levels (pS-1480 GluN2B; 30 min post-dosing): 1.80 fold
- serine-1480 phosphorylation of GluN2B levels (pS-1480 GluN2B; 60 min post-dosing): 1.48 fold
- serine-1480 phosphorylation of GluN2B levels (pS-1480 GluN2B; 120 min post-dosing): 1.50 fold
- ex vivo [3H] MK-801 binding in the rat medial prefrontal cortex (NMDA receptor): increases
- NR2B-dependent synaptic plasticity (NR2B-containing NMDARs): induces NR2B-dependent synaptic plasticity
- expression of Wnt11 in the mPFC ([1]; 1 hour post injection, relative to vehicle): significant reduction
- number of genes differentially expressed as compared to saline treated control rats (Wnt qRT-PCR array) ([1]; 1 hr after injection, 3 mg/kg IV, mPFC): 5 genes
- number of genes upregulated (Wnt qRT-PCR array) ([1]; 24 hrs after administration, 3 mg/kg IV, mPFC): 4 genes
- CK-2 specific activity (casein kinase II (CK2)): 3.08 fold
- total GluN2B protein vs. vehicle (GluN2B; 15 min post-dosing): 1.53 fold
- total GluN2B protein vs. vehicle (GluN2B; 30 min post-dosing): 1.71 fold
- total GluN2B protein vs. vehicle (GluN2B; 60 min post-dosing): 1.13 fold
- total GluN2B protein vs. vehicle (GluN2B; 120 min post-dosing): 1.16 fold
- antidepressant-like effects in multiple rat models (Sprague-Dawley rats; FIG. 4: Porsolt, NIH, LH and USVs tests): produces a robust antidepressant-like effect without dissociative side effects; also recorded: produces antidepressant-like effects in multiple rat models
- lowest dose that produces an anti-depressant effect in the Porsolt test (Sprague-Dawley rats; IV, rat): 3 mg/kg
- rapid antidepressant-like effects in the Porsolt test (Sprague-Dawley rats; IV, rat): produce rapid antidepressant-like effects
- antidepressant-like effects in the Porsolt test after injection into the prefrontal cortex (Sprague-Dawley rats; MPFC cannulae, 0.1, 1, 10 μg/side (FIG. 6)): shows antidepressant-like effects
- serine-1303 phosphorylation of GluN2B levels (pS-1303 GluN2B; 15 min post-dosing): 1.02 fold
- serine-1303 phosphorylation of GluN2B levels (pS-1303 GluN2B; 30 min post-dosing): 1.93 fold
- serine-1303 phosphorylation of GluN2B levels (pS-1303 GluN2B; 60 min post-dosing): 2.23 fold
- serine-1303 phosphorylation of GluN2B levels (pS-1303 GluN2B; 120 min post-dosing): 2.67 fold
